No constants are given. Whether binding was seen depends on the method and setting.

Protein sequences, listed by entry. Tags and fused reporters are not part of them. Residues count along the entry.
UniProt P01009, residues 25-418: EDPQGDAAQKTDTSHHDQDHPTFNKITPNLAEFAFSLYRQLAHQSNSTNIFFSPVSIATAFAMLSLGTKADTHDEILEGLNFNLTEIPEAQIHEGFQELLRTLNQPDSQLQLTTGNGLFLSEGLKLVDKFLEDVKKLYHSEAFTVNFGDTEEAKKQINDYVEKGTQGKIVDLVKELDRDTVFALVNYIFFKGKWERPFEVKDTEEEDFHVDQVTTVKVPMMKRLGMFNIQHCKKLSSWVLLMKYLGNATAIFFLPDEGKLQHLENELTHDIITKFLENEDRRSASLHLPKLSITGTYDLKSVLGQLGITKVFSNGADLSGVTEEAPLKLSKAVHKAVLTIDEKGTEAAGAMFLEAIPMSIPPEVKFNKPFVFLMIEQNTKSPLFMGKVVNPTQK

Data on 1 substance can be found in PMC6616352.

The assay concerns the target T1, pro-neutrophil elastase, inactive zymogen (mouse) (mouse (endogenous in C57BL/6J lung tissue)) (UniProt Q3UP87).
T1 sequence: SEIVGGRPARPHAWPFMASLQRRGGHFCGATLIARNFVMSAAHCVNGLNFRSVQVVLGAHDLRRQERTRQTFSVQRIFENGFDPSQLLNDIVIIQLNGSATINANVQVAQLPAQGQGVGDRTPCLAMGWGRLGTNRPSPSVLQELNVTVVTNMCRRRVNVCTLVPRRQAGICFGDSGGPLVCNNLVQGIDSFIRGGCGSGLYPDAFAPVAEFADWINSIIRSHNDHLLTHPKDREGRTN
As to the kind of experiment: covalent serpin-protease complex detected by SDS-PAGE and Western blot; whole lung tissue lysates of vehicle- or ICatC-treated mice, excess of AAT; 12% SDS-PAGE, blot with an AAT antibody together with a polyclonal anti-mouse PR3 antibody; irreversible complex expected as a 77 kDa band.

With “alpha-1-antitrypsin (from UniProt P01009 25-418)”, the binding entry is “no binding”.
